Common to all, as to assay: PRISMA enrichment of interactor (LFQ) in peptide spot vs all other peptide spots (log2 fold change); higher = stronger / more specific binding of the interactor to the peptide
Assay [1] deals with DHCR24, Q15392. On the procedure:
(§1)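 PRISMA: 15-aa overlapping tiles (offset 8 aa) of 60 microproteins, plus SOS1/GLUT1 control peptides, were spot-synthesized on cellulose membranes in triplicate. Membranes were incubated with benzonase-treated HEK293T lysate, and bound proteins were identified by LC-MS/MS with LFQ. Enrichment is the log2 fold change of each protein in one spot versus all other spots. Only interactors passing the significance cutoff are listed.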

Sequences of proteins named here, by UniProt entry; tags and fusion partners are left off.
PPP1CB, P62140, UniProt P62140, whole entry: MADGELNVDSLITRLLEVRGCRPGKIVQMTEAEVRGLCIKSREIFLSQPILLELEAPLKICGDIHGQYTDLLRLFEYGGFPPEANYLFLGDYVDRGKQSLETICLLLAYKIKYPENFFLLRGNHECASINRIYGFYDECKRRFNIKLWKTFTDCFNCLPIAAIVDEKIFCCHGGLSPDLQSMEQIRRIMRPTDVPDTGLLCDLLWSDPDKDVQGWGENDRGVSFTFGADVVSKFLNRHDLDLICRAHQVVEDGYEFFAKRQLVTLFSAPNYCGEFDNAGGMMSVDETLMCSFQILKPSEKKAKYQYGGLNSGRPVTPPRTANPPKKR

Assay [2] addresses FLII, Q13045. On the procedure: as §1
In assay [3] the target is HIST1H1E, P10412. On the procedure:
as §1

Assay [4] has as its target IK, Q13123. The method, then: as §1
Assay [5] concerns the target INTS2, Q9H0H0. On the procedure: as §1
Assay [6] concerns the target POP1, Q99575. The method, then: as §1
Assay [7] has as its target RNF213, Q63HN8. On the procedure:
as §1

For assay [8], the target named is RRP12, Q5JTH9. On the procedure:
as §1

Assay [9] deals with DCUN1D5, Q9BTE7. The method, then: as §1
Assay [10] addresses GALK1, P51570. On the procedure:
as §1

Assay [11] addresses MRPL18, Q9H0U6. On the procedure: as §1
The target in assay [12] is PKP2, Q99959. On the procedure:
as §1

Assay [13] has as its target PTCD3, Q96EY7. On the procedure: as §1
Assay [14] deals with RUVBL1, Q9Y265. The method, then:
as §1

The target of assay [15] is DCTN2, Q13561. The method, then: as §1
For assay [16], the target named is DDX31, Q9H8H2. The method, then: as §1
For assay [17], the target named is FXR2, P51116. On the procedure: as §1
The target in assay [18] is MTREX, P42285. On the procedure: as §1
In assay [19] the target is NUP160, Q12769. The method, then: as §1
Assay [20] addresses PPIL4, Q8WUA2. The method, then: as §1
Assay [21] has as its target SNRPF, P62306. On the procedure: as §1
The target in assay [22] is TXNDC5, Q8NBS9. On the procedure:
as §1

For assay [23], the target named is DNM1L, O00429. The method, then:
as §1

Assay [24] concerns the target EEFSEC, P57772. On the procedure: as §1
The target of assay [25] is GNL3L, Q9NVN8. The method, then:
as §1

Assay [26] has as its target GRB10, Q13322. On the procedure:
as §1

Assay [27] concerns the target LTV1, Q96GA3. On the procedure:
as §1

Assay [28] addresses SLAIN2, Q9P270. The method, then:
as §1

For assay [29], the target named is DDX23, Q9BUQ8. On the procedure:
as §1

The target in assay [30] is DIMT1, Q9UNQ2. On the procedure:
as §1

The target of assay [31] is DTYMK, P23919. On the procedure:
as §1

Assay [32] has as its target GAR1, Q9NY12. The method, then:
as §1

The target in assay [33] is GTF2I, P78347. The method, then: as §1
Assay [34] has as its target NOC2L, Q9Y3T9. On the procedure: as §1
Assay [35] has as its target PPAN-P2RY11. On the procedure: as §1
Assay [36] addresses TXLNA, P40222. The method, then: as §1
Assay [37] has as its target DDX54, Q8TDD1. On the procedure: as §1
In assay [38] the target is EXOC8, Q8IYI6. On the procedure:
as §1

Assay [39] deals with RSL1D1, O76021. The method, then:
as §1

The target of assay [40] is SARDH, Q9UL12. On the procedure: as §1
Assay [41] concerns the target SRSF4, Q08170. The method, then:
as §1

The target of assay [42] is WDCP, Q9H6R7. On the procedure: as §1
In assay [43] the target is EHHADH, Q08426. The method, then: as §1
The target of assay [44] is EIF4A1, P60842. The method, then: as §1
Assay [45] concerns the target HELLS, Q9NRZ9. The method, then: as §1
The target of assay [46] is MARCKSL1, P49006. On the procedure: as §1
The target in assay [47] is NOP16, Q9Y3C1. On the procedure: as §1
Assay [48] has as its target PAF1, Q8N7H5. The method, then: as §1
The target of assay [49] is PEF1, Q9UBV8. The method, then:
as §1

The target of assay [50] is PIN4, Q9Y237. On the procedure: as §1
Assay [51] concerns the target PPP1CB, P62140. The method, then: as §1
The target in assay [52] is PRDX4, Q13162. On the procedure:
as §1

For assay [53], the target named is PRMT1, Q99873. The method, then:
as §1

For assay [54], the target named is RAB3GAP1, Q15042. The method, then: as §1
Assay [55] concerns the target RALY, Q9UKM9. The method, then: as §1
For assay [56], the target named is SF3B1, O75533. On the procedure: as §1
Assay [57] has as its target SFXN1, Q9H9B4. The method, then:
as §1

Assay [58] concerns the target SLC25A24, Q6NUK1. On the procedure: as §1
Assay [59] has as its target TOMM6, Q96B49. The method, then: as §1
Assay [60] addresses ZNF483, Q8TF39. The method, then:
as §1

Assay [61] addresses ZW10, O43264. On the procedure:
as §1

Assay [62] has as its target DEF8, Q6ZN54. On the procedure:
as §1

The target of assay [63] is IST1, P53990. The method, then:
as §1

Assay [64] concerns the target MRPL39, Q9NYK5. On the procedure:
as §1

The target in assay [65] is SBNO1, A3KN83. The method, then: as §1
Assay [66] deals with SERPINA1, P01009. On the procedure:
as §1

In assay [67] the target is TF, P02787. On the procedure:
as §1

Assay [68] concerns the target ZFR, Q96KR1. On the procedure:
as §1

For assay [69], the target named is DDX5, P17844. On the procedure: as §1
Assay [70] addresses EIF1, P41567. The method, then:
as §1

The target in assay [71] is HSPB1, P04792. The method, then:
as §1

Assay [72] addresses MED20, Q9H944. The method, then: as §1
Assay [73] deals with MRPL27, Q9P0M9. On the procedure: as §1
Assay [74] has as its target TRIM26, Q12899. The method, then:
as §1

Assay [75] has as its target TRMT112, Q9UI30. On the procedure:
as §1

Assay [76] deals with DNAJA3, Q96EY1. The method, then:
as §1

Assay [77] addresses MAD2L1, Q13257. On the procedure: as §1
The target of assay [78] is PLS3, P13797. The method, then: as §1
In assay [79] the target is RCC2, Q9P258. On the procedure:
as §1

The target in assay [80] is RPS6KA3, P51812. On the procedure:
as §1

Some of the results follow. The list holds hits alone, and they repeat only in part.

B1: RP11-620J15.3 (peptide)
chain: MKWTQHVKTILSRSL
Regarding B1, the “PRISMA enrichment of interactor (log2)” value in assay [1] was found to be 4.85; in [2] it was 5.84; in assay [3], 5.98; in assay [4], 4.43; in [5] it was 4.61; in assay [6], 8.29. Moreover, the “PRISMA enrichment of interactor (log2)” value came to 8.89 in assay [7] and 6.86 in assay [8].

B2: MTLN (peptide)
chain: DWRKRRLQDKLAATQ
Turning to B2, the “PRISMA enrichment of interactor (log2)” value came to 6.11 in [9]; 4.63 in assay [10]; 5.45 in assay [11]; 5.89 in assay [12]; 5.95 in assay [13]; 6.1 in assay [14].

B3: LINC00881 (peptide)
chain: GTTCEMKDLRCCIGS
For B3, the “PRISMA enrichment of interactor (log2)” value in [15] amounted to 3.9; in assay [16] it was 4.78; in [17], 6.62; in assay [18], 6.19; in assay [19], 4.5; in assay [20] it was 4.27. For the same molecule, the “PRISMA enrichment of interactor (log2)” value in assay [21] was found to be 5.39; in assay [22], 5.24.

B4: MRPL33 (peptide)
chain: FAKSKSKNILVRMVS
For the molecule B4, the “PRISMA enrichment of interactor (log2)” value in assay [23] is 6.19.

B5: SNHG8 (peptide)
chain: MIIGPKLTALPKRQR
As for B5, the “PRISMA enrichment of interactor (log2)” value in assay [24] was determined as 7.16; in assay [25], 5.73; in assay [26] it was 4.86; in assay [27], 7.04; in assay [28], 6.03.

B6: C5orf56 (peptide)
chain: PQVLRMASRETRKWT
Consider B6, for which the “PRISMA enrichment of interactor (log2)” value worked out at 6.09 in assay [29]; 5.66 in assay [30]; 5.68 in assay [31]; 6.66 in assay [32]; 6.15 in assay [33]; 6.76 in assay [34]. The entries for the “PRISMA enrichment of interactor (log2)” value in [35] and in assay [36] were 6.46 and 5.78, respectively.

B7: RP11-140K17.3_2 (peptide)
chain: FCISSGSRSTSMPSM
In the case of B7, the “PRISMA enrichment of interactor (log2)” value in [37] stood at 5.7; in assay [38] it was 3.84; in assay [39], 5.38; in [40], 5.77; in [41], 6.04; in assay [42], 4.47.

B8: ABR (peptide)
chain: SEVLAEQRRPGMRLQ
Regarding B8, the “PRISMA enrichment of interactor (log2)” value in assay [43] came out at 6.8; in assay [44] it was 4.67; in [45], 4.85; in assay [46], 4.37; in assay [47], 4.68; in assay [48] it was 5.36. The “PRISMA enrichment of interactor (log2)” value in assay [49] stood at 4.89; in assay [50], 5.36; in assay [51], 5.14; in assay [52], 4.9; in assay [53] it was 5.34; in [54], 8.53. The “PRISMA enrichment of interactor (log2)” value in [55] worked out at 4.92; in [56], 5.78; in [57], 4.69; in assay [58] it was 5.58; in [59] it was 6.07; in assay [60], 4.23. The “PRISMA enrichment of interactor (log2)” value in assay [61] turned out to be 5.54.

B9: LINC01560 (peptide)
chain: MGALFRLLLQERGKA
With B9, the “PRISMA enrichment of interactor (log2)” value in [62] was determined as 10.6; in assay [3] it was 6.23; in assay [63] it was 7.88; in [64], 5.65; in assay [35] it was 5.35; in assay [65] it was 5.72. Further, the “PRISMA enrichment of interactor (log2)” value in [66] stood at 7.35; in assay [67], 4.74; in assay [68], 6.3.

B10: RP3-332B22.1 (peptide)
chain: MAILRQNMASLDFFL
For the molecule B10, the “PRISMA enrichment of interactor (log2)” value was found to be 4.65 in [69]; 5.81 in [70]; 4.77 in assay [71]; 4.52 in [72]; 6.5 in assay [73]; 4.92 in assay [74]. Besides, the “PRISMA enrichment of interactor (log2)” value in [75] worked out at 6.37.

B11: NDUFB3 (peptide)
chain: AWRYMGGFAKSVSFS
As for B11, the “PRISMA enrichment of interactor (log2)” value is 7.3 in [76]; 4.35 in assay [77]; 5 in assay [78]; 4.53 in assay [79]; 4.14 in [80].

The record behind these values is the supplement of paper PMC10032668.
